Measured values as given in paper PMC12607357.
No constants are given. Whether binding was seen depends on the method and setting. Binding seen in cells or lysates may run through a third protein. Some binding calls cover weakened binding; strength is not graded here.

Amino acid sequences for entries named in this document (tags omitted).
UniProt P46937: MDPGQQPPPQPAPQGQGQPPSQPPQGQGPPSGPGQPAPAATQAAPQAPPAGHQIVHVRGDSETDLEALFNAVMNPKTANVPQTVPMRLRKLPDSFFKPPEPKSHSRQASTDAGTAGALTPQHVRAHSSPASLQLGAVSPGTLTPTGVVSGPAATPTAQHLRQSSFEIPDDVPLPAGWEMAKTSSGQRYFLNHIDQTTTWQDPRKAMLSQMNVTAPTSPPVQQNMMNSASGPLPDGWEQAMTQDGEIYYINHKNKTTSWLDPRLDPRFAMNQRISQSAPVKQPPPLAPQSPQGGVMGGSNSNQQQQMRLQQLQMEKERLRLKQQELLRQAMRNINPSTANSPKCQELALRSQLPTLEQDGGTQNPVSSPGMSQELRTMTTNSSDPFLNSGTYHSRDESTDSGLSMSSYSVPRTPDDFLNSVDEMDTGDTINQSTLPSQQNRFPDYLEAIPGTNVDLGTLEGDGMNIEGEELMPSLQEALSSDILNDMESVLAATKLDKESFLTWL
UniProt Q9NR12: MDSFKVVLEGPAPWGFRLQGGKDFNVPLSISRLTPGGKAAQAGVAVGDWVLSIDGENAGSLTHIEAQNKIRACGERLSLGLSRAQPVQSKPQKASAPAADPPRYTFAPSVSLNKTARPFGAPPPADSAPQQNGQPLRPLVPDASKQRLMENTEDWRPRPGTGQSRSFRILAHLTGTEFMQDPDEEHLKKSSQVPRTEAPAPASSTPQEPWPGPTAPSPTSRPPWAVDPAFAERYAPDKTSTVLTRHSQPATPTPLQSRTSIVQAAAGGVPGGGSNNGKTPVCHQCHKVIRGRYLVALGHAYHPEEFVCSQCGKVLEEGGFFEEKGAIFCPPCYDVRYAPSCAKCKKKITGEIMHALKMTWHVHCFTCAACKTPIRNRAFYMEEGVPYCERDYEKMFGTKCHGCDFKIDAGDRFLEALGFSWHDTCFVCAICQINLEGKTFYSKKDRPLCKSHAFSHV
UniProt P15311: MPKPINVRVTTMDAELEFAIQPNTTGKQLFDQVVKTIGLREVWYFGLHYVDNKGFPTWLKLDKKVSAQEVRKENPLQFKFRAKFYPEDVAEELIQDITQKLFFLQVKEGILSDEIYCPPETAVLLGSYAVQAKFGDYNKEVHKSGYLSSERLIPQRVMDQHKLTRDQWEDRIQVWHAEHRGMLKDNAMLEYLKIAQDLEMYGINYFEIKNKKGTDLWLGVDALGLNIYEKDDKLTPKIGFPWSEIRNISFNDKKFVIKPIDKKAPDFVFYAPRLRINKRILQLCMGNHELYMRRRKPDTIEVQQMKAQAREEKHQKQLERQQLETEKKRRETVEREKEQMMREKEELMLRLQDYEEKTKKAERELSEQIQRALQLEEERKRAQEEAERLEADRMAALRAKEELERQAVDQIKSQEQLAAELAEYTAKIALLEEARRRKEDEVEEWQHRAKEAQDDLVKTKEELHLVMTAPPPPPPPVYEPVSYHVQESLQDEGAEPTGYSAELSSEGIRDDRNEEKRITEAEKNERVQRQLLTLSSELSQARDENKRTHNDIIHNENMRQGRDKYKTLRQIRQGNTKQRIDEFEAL

Target: Yes-associated protein (YAP) (human (endogenous in Caco-2)) (UniProt P46937)
Experiment: co-IP; endogenous proteins, untreated Caco-2 lysate (0.5% Triton X100 in PBS), 5 ug antibody on protein A/G magnetic beads, 2 h, three washes, Western blot

Substance	binding
PDLIM7 (from UniProt Q9NR12 1-457)	binds
ezrin (from UniProt P15311 1-586)	binds
